Test results as given in PubChem BioAssay AID504467 (National Center for Advancing Translational Sciences (NCATS), 2011).
Screen size: about 330,000 compounds; about 7,700 (2.3%) were called active. The shares of active, inactive and inconclusive entries below differ from those in the screen. The call rests on the fitted dose curve; in most records, active means well fitted inhibition curve with a large enough effect; inconclusive means small, poorly fitted or top-dose-only effect, or effect the other way; inactive means flat fitted curve, though single readings scatter. A potency beside an inconclusive call is a rough fit, not a confirmed value.

Assay: qHTS screen for small molecules that inhibit ELG1-dependent DNA repair in human embryonic kidney (HEK293T) cells expressing luciferase-tagged ELG1; further: nearly all actives have a fitted effect of over 55% in size
Conditions: HEK293T ELG1-luciferase reporter, luminescence, 16 h, DNA damage induced by 5-fluorouridine; activity change, negative = inhibition: at 46.1 µM (top of the series)
Method in brief: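 DMSO vehicle served as the neutral condition. Each well held 2,000 cells given 5-fluorouridine plus compound; after 16 hr at 37 °C/5% CO2, ONE-Glo was added and luciferase measured 30 min later.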
On the % scale 0 is the no-effect control and ±100 the full control effect; potency means the concentration at half of the fitted maximal effect.

Structure (SMILES) | Potency | activity change, negative = inhibition
CCOC(=O)Nc1ccc2c(CN3C(=O)NC(CC)(CC)C3=O)cc(=O)oc2c1 | inconclusive: 18.4 µM [inhibitor, single point] | –
Nc1nc(-c2cccnc2)nn1C(=O)Cc1ccccc1 | inconclusive: 20.6 µM [activator, partial curve, poor fit] | –
C=CCn1c(SCC(=O)Nc2nnc(CC)s2)nnc1-c1ccncc1 | inconclusive: 4.11 µM [inhibitor, single point] | –
COc1ccc(-c2csc3ncnc(N4CCN(S(=O)(=O)c5ccc(C)cc5)CC4)c23)cc1 | active: 20.6 µM | –
O=C(Nc1nc2ccc(Cl)cc2s1)c1ccc(N2CCCCC2)c([N+](=O)[O-])c1 | inconclusive: 29.1 µM [activator, single point] | –
CSc1nc2nccc(-c3ccc(Oc4ccccc4)cc3)n2n1 | inconclusive: 29.1 µM [inhibitor, single point] | –
CC1CC1C(=O)OCC(=O)Nc1ccc(N=Nc2ccccc2)cc1 (stereo not drawn) | inconclusive: 10.3 µM [activator, partial curve] | –
C#CCn1c(=NC(=O)c2cc(-c3cccs3)nc3ccccc23)sc2cc(S(N)(=O)=O)ccc21 | inconclusive: 5.17 µM [inhibitor, partial curve] | –
Cc1ccc(C(=O)CSc2nnc(-c3ccccc3)o2)cc1 | – | inactive: 17.1%
Cn1c(=O)c2c(nc(N/N=C/c3ccc(OC(=O)c4ccco4)cc3)n2Cc2ccc(F)cc2)n(C)c1=O | active: 16.4 µM | –
Cc1ccc(-n2c(SCC(=O)Nc3ncc(Cl)cc3Cl)nc3ccccc32)cc1 | inconclusive: 29.1 µM [inhibitor, single point] | –
c1cncc(-c2ccc3ncnc(NCc4ccc5c(c4)OCO5)c3c2)c1 | inconclusive: 14.6 µM [inhibitor, partial curve, poor fit] | –
COC(=O)CNc1n[nH]c(=S)[nH]c1=O | – | inactive: 1.2%
Cc1nc2cc(NC(=O)Nc3cccc4ccccc34)ccc2n1C | inconclusive: 2.59 µM [activator, full curve] | –
COc1ccc(CCN2CC(C(=O)NC3CCCCC3)CC2=O)cc1OC (stereo not drawn) | – | inactive: 9.8%
COc1ccc(C2/C(=C(/O)c3ccc4c(c3)CC(C)O4)C(=O)C(=O)N2CCCn2ccnc2)cc1 (stereo not drawn) | – | inactive: 18%
O=[N+]([O-])c1ccccc1CN1CCN(Cc2c[nH]c3ccccc23)CC1 | inconclusive: 20.6 µM [inhibitor, partial curve, poor fit] | –
Cc1ccc(OCC(=O)NNC(=O)C2CSC3(C)CCC(=O)N23)cc1C (stereo not drawn) | – | inactive: -5.17%
CCOC(=O)N1CCN(S(=O)(=O)c2ccc(OCC(=O)OC)cc2)CC1 | – | inactive: 3.8%
O=C(Nc1ccccc1)N1CCC(c2nc(-c3ccc(S(=O)(=O)N4CCOCC4)cc3)no2)CC1 | inconclusive: 7.31 µM [inhibitor, partial curve] | –
CNS(=O)(=O)c1cccc(C(=O)OCc2cc(=O)oc3c(C)c(O)ccc23)c1 | active: 23.1 µM | –
O=C(CSc1nnc(Nc2ccccc2)s1)Nc1cccc(S(=O)(=O)N2CCCCC2)c1 | inconclusive: 32.6 µM [inhibitor, single point] | –
CC1CCN(C(=O)COC(=O)CCC(=O)c2ccc(Cl)cc2)CC1 | – | inactive: 0%

Structure (SMILES) | Potency | activity change, negative = inhibition
O=C(COc1ccc(F)cc1Br)NCC1(N2CCOCC2)CCCCC1 | inconclusive: 29.1 µM [inhibitor, single point] | –
CCCN1CCC(NC(=O)c2cccc(Oc3ccccc3)c2)CC1 | inconclusive: 20.6 µM [activator, partial curve, poor fit] | –
C=C(C)COc1ccc(-c2ncncc2-c2ccc(OC)cc2)c(O)c1 | active: 16.4 µM | –
O=C1CC(Cc2ccccc2)C(=O)N1Cc1ccco1 (stereo not drawn) | – | inactive: 17%
Cc1ccc(/C=C2\SC(=S)N(CCC(=O)NNC(=O)c3ccc(O)cc3)C2=O)cc1 | – | inactive: -14.1%
CCn1cc(Br)c(C(=O)Nc2cccc(SC)c2)n1 | inconclusive: 20.6 µM [activator, partial curve] | –
COc1cc(C=O)ccc1OS(=O)(=O)c1ccccc1[N+](=O)[O-] | inconclusive: 18.4 µM [activator, single point] | –
COc1cc(NC(=O)C2CCCCC2)c2ncccc2c1 | – | inactive: 14.4%
Cc1cc(/C=C(\C#N)C(=O)Nc2ccccc2)c(C)n1-c1cccnc1 | inconclusive: 2.31 µM [activator, partial curve] | –
Brc1ccc(Cn2c(-c3cncs3)nc3ccccc32)cc1 | inconclusive: 20.6 µM [activator, partial curve] | –
O=C(N/N=C/c1ccc(N2CCOCC2)cc1)c1ccccc1OCCOc1ccccc1 | active: 16.4 µM | –
CCOC(=O)c1nc(-c2ccccc2)oc1N1CCOCC1 | – | inactive: -6.98%
COc1ccc(NC(=S)N(CCc2c(C)[nH]c3ccccc23)Cc2ccco2)cc1 | inconclusive: 20.6 µM [inhibitor, single point] | –
Cn1cnnc1SCC(=O)c1c[nH]c2ccccc12 | inconclusive: 12.6 µM [activator, partial curve] | –
O=C(Nc1ccc(CSc2ccccc2)cc1)c1ccco1 | inconclusive: 14.6 µM [activator, partial curve] | –
CN(C(=O)CN1C(=O)c2ccccc2S1(=O)=O)C1CCCCC1 | inconclusive: 14.6 µM [activator, partial curve] | –
COc1ccccc1CNS(=O)(=O)c1c(C(=O)N2CCCCC2)c(C)n(C)c1C | – | inactive: 0%
CC(=O)N(CC(C)C(=O)O)c1c(I)cc(I)c(N)c1I (stereo not drawn) | – | inactive: 24.5%
CNC[C@H](CC1CCCCC1)NC[C@H](Cc1ccccc1)NCCC12CC3CC(CC(C3)C1)C2 | inconclusive: 29.1 µM [inhibitor, single point] | –
COc1cc(C(=O)N2CCN(c3cccc(C)c3C)CC2)ccc1OCC(=O)N1CCOCC1 | inconclusive: 23.1 µM [inhibitor, single point] | –
COc1ccc2[nH]c(=S)[nH]c2c1 | – | inactive: 2.75%
O=C(NCc1ccccn1)c1c(O)c2c([nH]c1=O)CCCC2 | inconclusive: 6.51 µM [activator, single point] | –
COc1cc(NC(=O)CCc2c(C)nn(-c3ccc(N4CCOCC4)nn3)c2C)cc(OC)c1OC | inconclusive: 2.06 µM [inhibitor, partial curve] | –

Structure (SMILES) | Potency | activity change, negative = inhibition
COc1ccc(NC(=O)C2CCN(C(=O)[C@@H]3Cc4ccccc4CN3C(=O)OC(C)(C)C)CC2)cc1 | – | inactive: 0.892%
CC(C)(C)C(=O)Nc1ccc(C(=O)N/N=C/c2ccccc2OC(=O)c2ccc(Cl)cc2Cl)cc1 | inconclusive: 29.1 µM [inhibitor, single point] | –
CCOC(=O)N1CCN(C(=O)CSc2nc3c(cnn3-c3ccc(Cl)cc3)c(=O)[nH]2)CC1 | inconclusive: 25.9 µM [inhibitor, single point] | –
CCN1CCN(C(c2cccs2)C(C)NC(=O)c2c(F)cccc2F)CC1 (stereo not drawn) | – | inactive: 1.85%
COc1cc(C(=O)N/N=C/c2ccccn2)cc(OC)c1OC | inconclusive: 8.2 µM [inhibitor, partial curve] | –
O=C(/C=C/c1ccc(Cl)cc1Cl)NCc1ccco1 | inconclusive: 18.4 µM [activator, partial curve] | –
CCOC(=O)C1=C(COC(=O)COc2ccccc2C#N)NC(=O)NC1C (stereo not drawn) | inconclusive: 8.2 µM [activator, single point] | –
COc1ccc(N(C(=O)CCl)C(C(=O)NCCc2ccccc2)c2cccs2)cc1Cl (stereo not drawn) | inconclusive: 20.6 µM [inhibitor, single point] | –
COCCOC(=O)c1c(NC(=O)COC(=O)Cc2cccc(OC)c2)sc(C(N)=O)c1C | inconclusive: 29.1 µM [inhibitor, single point] | –
CC(C)(C)n1cnc2cc(NCc3cccs3)ccc21 | inconclusive: 13 µM [activator, partial curve] | –
COc1cc(-c2nc(-c3ccc4c(c3)-c3ccccc3S4(=O)=O)c(-c3ccccc3)[nH]2)cc(OC)c1O | active: 4.61 µM | –
COc1cc(/C=C2/C(=O)NN(c3cccc(F)c3)C2=O)ccc1OC(=O)c1ccco1 | inconclusive: 29.1 µM [activator, single point] | –
COc1ccc(C)cc1NC(=O)CN1C(=O)COc2ccc(S(=O)(=O)N3CCCCC3)cc21 | – | inactive: 0.752%
NS(=O)(=O)c1cccc(NC(=O)COC(=O)c2cc([N+](=O)[O-])ccc2N2CCCC2)c1 | inconclusive: 29.1 µM [inhibitor, single point] | –
Cc1ccc(-n2ncc3c(NCc4ccco4)ncnc32)cc1C | inconclusive: 7.3 µM [activator, partial curve] | –
CC1CCN(CC(=O)Nc2ccc(S(=O)(=O)N3CCCC(C)C3)cc2)CC1 (stereo not drawn) | inconclusive: 14.6 µM [inhibitor, partial curve, poor fit] | –
Fc1cccc(/C=C2\CCCC3=C2NC(=S)NC3c2cccc(F)c2)c1 (stereo not drawn) | inconclusive: 25.9 µM [inhibitor, single point] | –
CCOC(=O)C1CCCN(Cc2cc(=O)oc3cc(C)ccc23)C1 (stereo not drawn) | inconclusive: 23.1 µM [activator, single point] | –
Cc1ccc(-n2ncc3c(SCc4ccccn4)ncnc32)c(C)c1 | inconclusive: 16.4 µM [activator, partial curve, poor fit] | –
CCCCN(CC)Cc1c(C)[nH]c2ccccc2c1=O | – | inactive: -15.5%
CN(C)S(=O)(=O)c1cccc(-c2csc(=Nc3ccccc3)n2CCCN2CCOCC2)c1 | inconclusive: 29.1 µM [inhibitor, partial curve, poor fit] | –
CCOC(=O)CC(=O)CSc1nc(-c2ccccc2)cc(-c2ccccc2)c1C#N | inconclusive: 18.4 µM [inhibitor, single point] | –

Structural class, those above with a thiophene ring, fused or not (six)
Structure (SMILES) | Potency | activity change, negative = inhibition
COc1ccc(-c2csc3ncnc(N4CCN(S(=O)(=O)c5ccc(C)cc5)CC4)c23)cc1 | active: 20.6 µM | –
C#CCn1c(=NC(=O)c2cc(-c3cccs3)nc3ccccc23)sc2cc(S(N)(=O)=O)ccc21 | inconclusive: 5.17 µM [inhibitor, partial curve] | –
CCN1CCN(C(c2cccs2)C(C)NC(=O)c2c(F)cccc2F)CC1 (stereo not drawn) | – | inactive: 1.85%
COc1ccc(N(C(=O)CCl)C(C(=O)NCCc2ccccc2)c2cccs2)cc1Cl (stereo not drawn) | inconclusive: 20.6 µM [inhibitor, single point] | –
COCCOC(=O)c1c(NC(=O)COC(=O)Cc2cccc(OC)c2)sc(C(N)=O)c1C | inconclusive: 29.1 µM [inhibitor, single point] | –
CC(C)(C)n1cnc2cc(NCc3cccs3)ccc21 | inconclusive: 13 µM [activator, partial curve] | –
